Data on one molecule can be found in publication PMC11782696, “Claudin-11 regulates immunological barrier formation and spermatogonial proliferation through stem cell factor” (Communications Biology, 2025).

These are yes or no findings as the source states them, for the method shown. Where a sequence is shown, tags or fusion partners need not be part of it.

The assay deals with T1, GST fusion protein of mouse CLDN11 C-terminus lacking the two C-terminal amino acids (HV sequence) (aa 179-205) (mouse) (UniProt Q60771).
T1 sequence: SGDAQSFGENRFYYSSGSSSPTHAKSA
Nature of the assay: pull-down; GST-fused proteins on Glutathione Sepharose 4B beads incubated with eluted MBP-fused proteins at 4 °C overnight in buffer A (50 mM Tris-HCl pH 8.0, 50 mM NaCl, 1 mM EDTA, 1 mM DTT); washed three times; SDS-PAGE and Coomassie Brilliant Blue staining; both purified.

B1: MBP fusion protein of the PDZ1 domain (aa 19-113) of mouse ZO1 (domain or fragment, UniProt P39447 19-113)
chain: WEQHTVTLHRAPGFGFGIAISGGRDNPHFQSGETSIVISDVLKGGPAEGQLQENDRVAMVNGVSMDNVEHAFAVQQLRKSGKNAKITIRRKKKVQ
For B1, the binding entry is “no binding”.
